Consider 42 compounds from PubChem BioAssay AID493014 (National Center for Advancing Translational Sciences (NCATS), 2011).

The term AC50 denotes the concentration at which the activity in the assay is half-maximal.

This is one part of the list. These are further read-outs of the screen, such as a control signal, another cell line or another target. No call is given for them. Most of these compounds were active or inconclusive in the main read-out, so they are no random draw. Words in brackets tell the shape of the fitted curve; partial curves, single points and poor fits give uncertain potencies.

A short description of this experiment: qHTS Assay to Find Inhibitors of Chronic Active B-Cell Receptor Signaling. The conditions noted are these: ABC-DLBCL IkBa-CBG/CBR reporter, luminescence ratio (green luciferase fused to IkBa over red control in TMD8 lymphoma cells), 4 h. The method in brief: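 Doxycycline induced both beetle luciferases in TMD8 lymphoma cells; IKK-driven degradation limits the IkappaBalpha-fused green signal, while red luminescence normalises for cell number and nonspecific effects. Compounds tested up to 46 uM, 4 hrs.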
For orientation: qHTS replaces the single test concentration by a dilution series.

The mark [1] stands for this setting: measured here: CBR red luminescence, cell number.
Where [2] appears, read: measured here: IkBa-CBG green luminescence.

`O=C(CS(=O)CC(=O)Nc1cnc2ccccc2c1)Nc1ccc(Cl)cc1` (stereo not drawn): the AC50 under setting [1] was 11.2 µM [falling, single point].

Turning to `Cc1c(N2C(=O)/C(=C\c3ccc(N(C)C)cc3)N(C)C2=S)c(=O)n(-c2ccccc2)n1C`, the AC50 under setting [1] is 29.1 µM [rising, single point].

Take `COc1ccc(CC(=O)NCc2ccc3c(c2)OCO3)cc1`: the AC50 under setting [1] is 0.13 µM [rising, full curve, poor fit].

On to `COc1ccc(C=O)cc1COc1ccc2c(c1)OCO2`, for which the AC50 under setting [1] is 25.9 µM [rising, single point] and the half-maximal activity concentration (AC50) under setting [2] is 18.4 µM [falling, single point].

On to `COc1ccc(-c2csc(NC(=S)NC(=O)c3cc4ccccc4o3)n2)cc1Br`, for which, under setting [1], the AC50 is 3.55 µM [rising, full curve, poor fit].

Regarding `CN(CC(=O)Nc1ccccc1Br)C(=O)c1cc2c(s1)CCCCC2`, the AC50 under setting [1] is 20.6 µM [falling, partial curve, poor fit].

With `COc1cc(OC)c2c(-c3cccc(-c4ccoc4)c3)cc(=O)oc2c1`, under setting [2], the AC50 was 29.1 µM [falling, partial curve, poor fit].

With `Cc1nn(CC(=O)O)c(=O)c2ccccc12`, the concentration at half-maximal activity (AC50) under setting [1] was 2.31 µM [rising, partial curve, poor fit].

For `COCc1cc(C)nc(OCC(=O)N/N=C/c2ccc(-c3cc([N+](=O)[O-])ccc3C)o2)c1C#N`, the AC50 under setting [1] is 0.092 µM [rising, full curve, poor fit].

For `Fc1ccc(/C=N/NC(=S)Nc2ccc(Cl)cc2)cc1F`, the AC50 under setting [1] was 29.1 µM [rising, single point].

Turning to `C=CCNC(=O)c1onc(CSc2ccccc2)c1C(=O)O`, the AC50 under setting [1] is 11.2 µM [falling, partial curve].

`CCSc1nnc(CSc2ncccn2)n1C`: under setting [1], the AC50 is 0.562 µM [rising, full curve, poor fit].

For `COC(=O)c1sccc1NC(=O)Nc1ccc(C)cc1`, the half-maximal activity concentration (AC50) under setting [1] was 0.794 µM [falling, full curve].

Consider `COc1c(C(=O)Nc2ccc(Cc3ccncc3)cc2)ccc2ccccc12`, for which, under setting [1], the AC50 is 16.4 µM [falling, partial curve].

As to `O=C(Nc1cccc(S(=O)(=O)N2CCCC2)c1)c1cc(=O)[nH]c2ccccc12`, under setting [1], the AC50 was 23.1 µM [rising, partial curve].

As for `COC(=O)c1ccc(NC(=O)CCNS(=O)(=O)c2cccc3nonc23)cc1`, the AC50 under setting [1] was 3.26 µM [rising, single point].

Consider `Cc1cc(C(=O)Nc2cnc3ccccc3c2)ccc1[N+](=O)[O-]`, for which the concentration at half-maximal activity (AC50) under setting [1] was 0.355 µM [rising, full curve, poor fit].

For the compound `c1cnc(N2CCN(Cc3c[nH]c4ccccc34)CC2)nc1`, under setting [1], the AC50 is 25.1 µM [rising, single point].

Regarding `CCOC(=O)C1=C(CCc2ccccc2)NC(=O)NC1c1ccc2ccccc2c1` (stereo not drawn), under setting [1], the AC50 is 11.2 µM [falling, partial curve].

`C=CCn1c(O)c(N=Nc2ccccc2)c2ccccc21`: the half-maximal activity concentration (AC50) under setting [1] is 7.08 µM [rising, full curve, poor fit].

In the case of `CCOc1cc2c3c(c1)C(C)=CC(C)(C)N3C(=O)C2=O`, the AC50 under setting [1] is 8.91 µM [rising, partial curve, poor fit].

As for `COc1ccc(NC(=O)COC(=O)[C@@H]2CCCN2S(=O)(=O)c2ccccc2F)c(OC)c1`, under setting [1], the AC50 is 3.55 µM [rising, partial curve].

As to `Cc1cc(-c2nc3ccccc3[nH]2)ccc1N`, under setting [1], the concentration at half-maximal activity (AC50) is 12.6 µM [falling, partial curve, poor fit].

Regarding `Fc1ccc(CSc2nc3ccccc3[nH]2)cc1`, the concentration at half-maximal activity (AC50) under setting [1] was 0.146 µM [rising, full curve, poor fit].

Regarding `Cc1c(NC2=C(Cl)C(=O)N(c3ccccc3)C2=O)c(=O)n(-c2ccccc2)n1C`, the AC50 under setting [1] is 23.1 µM [falling, single point].

In the case of `Cc1ccc(N(C(=O)c2ccccn2)C2(C(=O)NC3CCCC3)CCCCC2)cc1`, under setting [1], the AC50 is 0.411 µM [rising, partial curve, poor fit].

As for `CCn1cc(Cl)c(C(=O)Nc2ccccc2C(N)=O)n1`, the AC50 under setting [1] was 7.94 µM [rising, partial curve, poor fit].

As for `Cc1[nH]oc(=O)c1N=Nc1c(Cl)cccc1Cl`, the AC50 under setting [1] was 4.61 µM [rising, full curve, poor fit].

For the compound `CN1N=C2c3ccccc3CCC2C1c1ccc(Cl)cc1` (stereo not drawn), the concentration at half-maximal activity (AC50) under setting [1] is 11.2 µM [rising, partial curve].

For the compound `COc1ccc(-c2cc3ncnc(Cl)c3s2)cc1`, under setting [1], the AC50 was 35.5 µM [falling, single point].

As for `COc1cccc(CNCCc2c[nH]c3ccccc23)c1OCc1ccccc1`, under setting [1], the AC50 is 29.1 µM [falling, single point].

As to `Cc1ccc(-c2nnc(Sc3nc4ccccc4o3)c3ccccc23)cc1`, the AC50 under setting [1] is 2.82 µM [falling, full curve, poor fit].

Regarding `O=C(CSC1=Nc2ccccc2C2=NC(CC(=O)NC3CCCCC3)C(=O)N12)NCc1ccco1` (stereo not drawn), under setting [1], the AC50 was 12.6 µM [falling, partial curve].

As to `CC(C)c1ccc(NC2=CC(=O)CC(C)(C)C2)cc1`, under setting [1], the AC50 is 17.8 µM [rising, partial curve].

Take `N#CC(c1ccc(Cl)cc1)c1ccc(Cl)nn1` (stereo not drawn): the AC50 under setting [1] is 20.6 µM [falling, single point].

Regarding `CN(C(=O)c1cc2ccccc2cc1O)C1CCCCC1`, the AC50 under setting [1] was 0.355 µM [rising, full curve, poor fit].

For the compound `CSc1cccc(NC(=O)Nc2ccccc2)c1`, the AC50 under setting [1] was 7.31 µM [falling, partial curve, poor fit].

Regarding `C=CCNC(=O)/C=C/c1ccc(C(C)C)cc1`, the AC50 under setting [1] was 7.31 µM [rising, partial curve].

Consider `O=C(N/N=C/c1cccc([N+](=O)[O-])c1)C1CC1c1ccccc1` (stereo not drawn), for which the AC50 under setting [1] is 6.51 µM [rising, full curve, poor fit].

Regarding `CCN(CC(=O)Nc1ccc(NC(C)=O)cc1)C(=O)CCCOc1ccc(C(C)(C)C)cc1`, the AC50 under setting [1] is 29.1 µM [falling, single point].

With `O=S(=O)(NCCc1cn2ccccc2n1)c1ccc2c(c1)OCCO2`, the AC50 under setting [1] was 29.1 µM [rising, single point].

Regarding `COCc1cc(SC2CCCCC2)nc(C)n1`, the concentration at half-maximal activity (AC50) under setting [1] was 12.6 µM [rising, partial curve].
